Test results reported in the supplement of paper PMC10849652.
Some of the results follow.

Protein sequences, listed by entry. Tags and fused reporters are not part of them. Lines headed by an entry give the natural chain unless they say otherwise; changes in a name come on top.
UniProt Q08945, whole entry, looked up: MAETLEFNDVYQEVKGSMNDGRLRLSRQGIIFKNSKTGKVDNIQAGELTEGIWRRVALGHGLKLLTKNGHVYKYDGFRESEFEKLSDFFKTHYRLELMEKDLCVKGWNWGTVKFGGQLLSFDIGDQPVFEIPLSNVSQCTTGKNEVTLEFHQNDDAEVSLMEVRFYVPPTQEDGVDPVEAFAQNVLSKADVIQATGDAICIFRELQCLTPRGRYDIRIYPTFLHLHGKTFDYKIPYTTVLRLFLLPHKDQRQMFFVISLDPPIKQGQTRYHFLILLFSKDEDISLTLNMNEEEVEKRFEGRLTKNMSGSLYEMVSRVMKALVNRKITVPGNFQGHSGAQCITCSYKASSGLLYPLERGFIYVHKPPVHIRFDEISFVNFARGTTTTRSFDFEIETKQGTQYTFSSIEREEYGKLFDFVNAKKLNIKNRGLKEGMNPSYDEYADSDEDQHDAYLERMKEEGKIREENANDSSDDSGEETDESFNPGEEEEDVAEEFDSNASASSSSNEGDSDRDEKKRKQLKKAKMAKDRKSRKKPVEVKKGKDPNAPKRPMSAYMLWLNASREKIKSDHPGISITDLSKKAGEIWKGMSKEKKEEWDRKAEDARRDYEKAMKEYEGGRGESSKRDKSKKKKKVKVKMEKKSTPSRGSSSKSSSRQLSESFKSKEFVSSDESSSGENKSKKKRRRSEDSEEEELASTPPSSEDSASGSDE
UniProt Q9H8P0: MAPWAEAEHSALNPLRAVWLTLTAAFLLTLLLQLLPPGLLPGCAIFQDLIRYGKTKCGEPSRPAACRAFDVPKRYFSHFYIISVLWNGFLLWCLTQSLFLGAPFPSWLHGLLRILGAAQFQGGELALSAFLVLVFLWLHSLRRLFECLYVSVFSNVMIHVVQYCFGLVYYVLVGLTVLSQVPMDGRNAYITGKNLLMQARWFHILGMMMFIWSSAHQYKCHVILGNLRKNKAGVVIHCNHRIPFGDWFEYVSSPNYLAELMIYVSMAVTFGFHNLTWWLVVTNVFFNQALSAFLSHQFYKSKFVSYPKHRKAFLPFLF
UniProt P40763, whole entry, looked up: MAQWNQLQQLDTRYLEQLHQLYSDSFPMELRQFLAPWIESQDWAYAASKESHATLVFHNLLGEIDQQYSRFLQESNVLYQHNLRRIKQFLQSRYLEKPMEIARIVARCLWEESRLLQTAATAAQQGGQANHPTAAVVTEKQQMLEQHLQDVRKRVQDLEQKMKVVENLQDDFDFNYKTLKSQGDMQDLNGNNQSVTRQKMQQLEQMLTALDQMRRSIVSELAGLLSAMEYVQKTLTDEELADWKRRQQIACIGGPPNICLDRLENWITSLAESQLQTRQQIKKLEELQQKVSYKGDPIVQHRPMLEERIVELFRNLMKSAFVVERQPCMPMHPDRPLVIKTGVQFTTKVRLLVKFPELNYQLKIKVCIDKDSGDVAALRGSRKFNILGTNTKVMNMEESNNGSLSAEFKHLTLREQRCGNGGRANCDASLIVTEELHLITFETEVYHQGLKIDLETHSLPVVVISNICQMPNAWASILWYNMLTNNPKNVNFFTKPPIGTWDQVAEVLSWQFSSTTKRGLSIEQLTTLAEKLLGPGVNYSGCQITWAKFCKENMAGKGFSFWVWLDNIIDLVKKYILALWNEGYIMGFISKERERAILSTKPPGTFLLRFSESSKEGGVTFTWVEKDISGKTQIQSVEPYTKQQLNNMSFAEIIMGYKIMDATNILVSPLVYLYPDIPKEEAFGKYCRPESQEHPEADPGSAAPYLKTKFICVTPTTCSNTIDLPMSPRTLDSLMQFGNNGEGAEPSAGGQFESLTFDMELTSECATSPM
UniProt Q9NQZ5: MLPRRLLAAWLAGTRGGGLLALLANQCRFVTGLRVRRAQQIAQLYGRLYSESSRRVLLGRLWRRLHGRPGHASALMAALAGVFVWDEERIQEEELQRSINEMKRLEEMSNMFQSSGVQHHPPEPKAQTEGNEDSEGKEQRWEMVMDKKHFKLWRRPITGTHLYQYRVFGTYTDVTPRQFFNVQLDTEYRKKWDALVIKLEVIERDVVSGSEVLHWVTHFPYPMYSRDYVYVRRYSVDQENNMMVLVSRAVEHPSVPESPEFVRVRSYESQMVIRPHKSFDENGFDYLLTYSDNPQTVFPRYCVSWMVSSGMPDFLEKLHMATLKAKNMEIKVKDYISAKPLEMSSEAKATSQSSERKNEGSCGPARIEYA
UniProt P52630: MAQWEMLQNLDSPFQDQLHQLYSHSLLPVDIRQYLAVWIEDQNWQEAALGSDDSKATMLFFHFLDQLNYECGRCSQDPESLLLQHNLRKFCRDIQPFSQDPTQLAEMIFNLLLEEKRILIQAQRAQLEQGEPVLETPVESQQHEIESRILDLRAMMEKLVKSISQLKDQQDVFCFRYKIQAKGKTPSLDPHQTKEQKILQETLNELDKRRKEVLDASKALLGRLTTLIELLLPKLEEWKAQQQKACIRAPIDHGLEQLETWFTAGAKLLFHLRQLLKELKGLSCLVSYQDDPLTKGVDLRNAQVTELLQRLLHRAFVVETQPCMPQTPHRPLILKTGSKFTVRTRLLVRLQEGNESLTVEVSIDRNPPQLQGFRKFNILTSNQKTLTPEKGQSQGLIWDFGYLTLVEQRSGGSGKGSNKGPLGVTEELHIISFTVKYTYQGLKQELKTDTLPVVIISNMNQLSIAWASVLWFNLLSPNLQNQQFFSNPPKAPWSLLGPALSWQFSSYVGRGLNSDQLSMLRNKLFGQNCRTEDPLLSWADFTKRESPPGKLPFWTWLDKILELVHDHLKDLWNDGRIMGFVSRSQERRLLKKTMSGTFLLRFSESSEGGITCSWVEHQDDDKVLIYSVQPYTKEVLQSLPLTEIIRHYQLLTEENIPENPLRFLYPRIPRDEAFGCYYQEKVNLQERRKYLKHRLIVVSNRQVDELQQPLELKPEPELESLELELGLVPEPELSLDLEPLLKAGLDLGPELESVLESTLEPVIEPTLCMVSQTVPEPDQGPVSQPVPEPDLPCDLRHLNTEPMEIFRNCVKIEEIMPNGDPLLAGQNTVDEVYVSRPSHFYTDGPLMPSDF
UniProt P10124: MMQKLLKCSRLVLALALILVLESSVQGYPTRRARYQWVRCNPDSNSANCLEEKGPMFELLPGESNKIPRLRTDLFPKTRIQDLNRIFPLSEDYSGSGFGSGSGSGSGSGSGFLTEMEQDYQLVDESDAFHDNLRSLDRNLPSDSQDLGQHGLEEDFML
UniProt Q9H254, whole entry, looked up: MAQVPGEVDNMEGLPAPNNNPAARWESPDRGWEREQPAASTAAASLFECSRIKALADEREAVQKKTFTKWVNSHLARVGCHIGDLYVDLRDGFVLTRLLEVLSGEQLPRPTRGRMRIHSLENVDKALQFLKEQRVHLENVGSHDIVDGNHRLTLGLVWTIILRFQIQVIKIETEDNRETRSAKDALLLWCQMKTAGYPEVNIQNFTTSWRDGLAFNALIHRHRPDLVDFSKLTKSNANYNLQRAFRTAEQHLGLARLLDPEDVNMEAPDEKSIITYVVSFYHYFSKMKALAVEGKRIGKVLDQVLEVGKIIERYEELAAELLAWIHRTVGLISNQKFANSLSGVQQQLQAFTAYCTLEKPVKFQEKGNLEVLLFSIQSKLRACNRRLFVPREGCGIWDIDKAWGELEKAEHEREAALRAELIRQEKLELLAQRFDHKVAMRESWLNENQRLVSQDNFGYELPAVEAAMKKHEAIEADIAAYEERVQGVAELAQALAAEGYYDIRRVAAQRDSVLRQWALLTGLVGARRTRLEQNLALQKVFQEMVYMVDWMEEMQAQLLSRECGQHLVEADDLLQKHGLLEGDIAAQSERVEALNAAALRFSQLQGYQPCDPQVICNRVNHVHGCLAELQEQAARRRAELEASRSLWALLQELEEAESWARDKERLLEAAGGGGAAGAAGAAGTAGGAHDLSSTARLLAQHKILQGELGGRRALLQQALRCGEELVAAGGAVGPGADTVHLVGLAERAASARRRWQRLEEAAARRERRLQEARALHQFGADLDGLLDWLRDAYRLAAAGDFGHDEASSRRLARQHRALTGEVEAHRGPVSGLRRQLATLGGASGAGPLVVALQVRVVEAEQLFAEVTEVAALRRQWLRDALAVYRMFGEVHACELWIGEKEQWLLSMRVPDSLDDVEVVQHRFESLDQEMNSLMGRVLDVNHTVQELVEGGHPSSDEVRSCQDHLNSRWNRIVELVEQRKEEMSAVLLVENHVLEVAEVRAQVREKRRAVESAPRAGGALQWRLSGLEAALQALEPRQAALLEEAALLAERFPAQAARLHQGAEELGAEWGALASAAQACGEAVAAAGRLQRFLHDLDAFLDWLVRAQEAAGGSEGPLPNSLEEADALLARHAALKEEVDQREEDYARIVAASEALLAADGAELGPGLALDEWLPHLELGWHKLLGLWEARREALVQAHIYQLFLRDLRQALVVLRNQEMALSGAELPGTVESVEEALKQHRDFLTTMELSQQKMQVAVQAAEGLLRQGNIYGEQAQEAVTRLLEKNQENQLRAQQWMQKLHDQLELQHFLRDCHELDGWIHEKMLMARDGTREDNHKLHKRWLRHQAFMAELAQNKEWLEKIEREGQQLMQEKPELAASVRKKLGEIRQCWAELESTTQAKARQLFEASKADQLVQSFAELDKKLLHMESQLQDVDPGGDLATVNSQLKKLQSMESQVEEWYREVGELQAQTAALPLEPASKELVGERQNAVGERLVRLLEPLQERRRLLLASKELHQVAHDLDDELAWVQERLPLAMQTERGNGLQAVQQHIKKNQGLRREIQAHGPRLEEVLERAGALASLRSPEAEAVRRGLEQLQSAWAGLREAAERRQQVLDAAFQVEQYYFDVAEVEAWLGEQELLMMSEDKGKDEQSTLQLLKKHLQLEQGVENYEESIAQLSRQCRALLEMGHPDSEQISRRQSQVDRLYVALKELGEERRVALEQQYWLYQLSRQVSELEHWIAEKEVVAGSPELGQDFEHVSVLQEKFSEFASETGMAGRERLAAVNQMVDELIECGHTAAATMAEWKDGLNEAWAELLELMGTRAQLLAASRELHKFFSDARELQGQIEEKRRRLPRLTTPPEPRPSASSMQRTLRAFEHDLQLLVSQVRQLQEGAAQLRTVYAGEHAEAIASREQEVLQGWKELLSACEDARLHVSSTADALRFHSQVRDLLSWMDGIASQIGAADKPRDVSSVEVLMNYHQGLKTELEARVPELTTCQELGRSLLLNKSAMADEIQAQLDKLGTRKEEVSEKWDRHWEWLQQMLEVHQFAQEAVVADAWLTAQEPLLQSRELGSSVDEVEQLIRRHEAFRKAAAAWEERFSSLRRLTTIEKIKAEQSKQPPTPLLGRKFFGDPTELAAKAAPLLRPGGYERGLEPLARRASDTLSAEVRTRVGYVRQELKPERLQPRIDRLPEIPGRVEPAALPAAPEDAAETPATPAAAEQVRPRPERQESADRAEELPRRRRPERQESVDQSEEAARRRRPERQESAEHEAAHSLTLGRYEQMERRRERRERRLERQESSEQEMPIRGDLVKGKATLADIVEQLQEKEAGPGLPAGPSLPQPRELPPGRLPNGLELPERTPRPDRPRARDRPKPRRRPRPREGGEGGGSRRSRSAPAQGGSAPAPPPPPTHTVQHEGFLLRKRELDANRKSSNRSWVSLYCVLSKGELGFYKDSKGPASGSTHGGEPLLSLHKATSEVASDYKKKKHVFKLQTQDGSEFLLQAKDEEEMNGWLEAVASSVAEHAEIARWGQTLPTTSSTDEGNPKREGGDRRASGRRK
UniProt Q9UBP0: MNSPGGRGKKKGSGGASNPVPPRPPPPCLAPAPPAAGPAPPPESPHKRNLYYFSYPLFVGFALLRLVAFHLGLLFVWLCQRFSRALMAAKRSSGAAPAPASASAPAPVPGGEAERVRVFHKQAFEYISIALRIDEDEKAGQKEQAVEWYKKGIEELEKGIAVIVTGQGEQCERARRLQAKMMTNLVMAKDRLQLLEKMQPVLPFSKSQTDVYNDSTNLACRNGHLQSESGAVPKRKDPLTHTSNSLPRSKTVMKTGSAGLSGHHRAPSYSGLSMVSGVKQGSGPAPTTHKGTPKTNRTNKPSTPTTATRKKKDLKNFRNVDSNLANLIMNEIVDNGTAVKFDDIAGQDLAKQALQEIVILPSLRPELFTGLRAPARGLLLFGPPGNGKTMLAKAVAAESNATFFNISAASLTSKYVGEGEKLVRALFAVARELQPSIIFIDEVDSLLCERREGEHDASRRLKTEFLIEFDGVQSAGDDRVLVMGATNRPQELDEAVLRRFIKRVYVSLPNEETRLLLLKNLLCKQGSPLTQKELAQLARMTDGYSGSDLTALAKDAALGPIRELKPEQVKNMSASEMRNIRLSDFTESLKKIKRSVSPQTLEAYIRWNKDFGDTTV
UniProt O95772: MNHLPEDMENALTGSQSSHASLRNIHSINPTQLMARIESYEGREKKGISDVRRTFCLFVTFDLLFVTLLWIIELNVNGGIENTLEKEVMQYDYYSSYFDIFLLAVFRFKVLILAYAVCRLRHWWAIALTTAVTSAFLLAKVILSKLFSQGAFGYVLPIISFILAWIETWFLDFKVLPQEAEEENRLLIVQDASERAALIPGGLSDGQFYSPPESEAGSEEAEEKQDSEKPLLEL

Tests used:
Assay in all cases: log2 fold change, soluble protein after heating vs DMSO (PISA); higher = thermal stabilisation; K562 lysate, 10 uM; active = over 0.2 and 3.5 SD of the protein, either way, in both replicates (recomputed)
[1] = compound: C1=CC=C(C=C1)[C@H](COC2=CC3=C(C=C2)NC(=O)N3)NC(=O)C4=CC=CN(C4=O)CC5=CC(=C(C=C5)F)F
Outline: (§1)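 Following dounce homogenisation of K562 pellets in PBS pH 7.4 with 1 mM MgCl2, crude extract at 1 mg/mL protein was incubated for 30 min with 10 μM compound. Aliquots were then heated for 3 min over 48°C-58°C and pooled, NP-40 was added to 0.5% at 4°C, and soluble protein was recovered as the supernatant at 21,000xg for 90 min. Channel-sum-equalised TMTpro 16plex LC-MS/MS quantified this protein. Each value, from duplicates, is a log-two fold change in thermal stability relative to solvent controls.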

[2] = compound: CC1=C(SC2=C1C(=N[C@H](C3=NN=C(N32)C)CC(=O)N)C4=CC=C(C=C4)Cl)C
Outline: as §1

[3] = compound: CC1=C2C(=CC=C1)N=C(N(C2=O)C3=CC=CC=C3C)CN4C=NC5=C(N=CN=C54)N
Outline: as §1

[4] = compound: Cc1sc2c(c1C)C(c1ccc(Cl)cc1)=N[C@@H](CC(=O)OC(C)(C)C)c1nnc(C)n1-2
Outline: as §1

[5] = compound: c1ccc([C@@H]2C[C@H]2NC2CCNCC2)cc1
Outline: as §1

Measured: log2 fold change

SREK1 isoform 2 (UniProt Q8WXA9)
inactive: [1] 0.015 | [2] 0.033 | [3] 0.026 | [4] 0.059 | [5] -0.006

SPR (UniProt P35270)
inactive: [1] 0.113 | [2] -0.031 | [3] -0.027 | [4] -0.034 | [5] -0.067

SPC24 (UniProt Q8NBT2)
inactive: [1] -0.024 | [2] -0.073 | [3] -0.019 | [4] 0.021 | [5] 0.013

SPRYD7 (UniProt Q5W111)
inactive: [1] 0.005 | [2] 0.057 | [3] -0.001 | [4] 0.063 | [5] -0.006

SSRP1 (UniProt Q08945)
inactive: [1] 0.009 | [2] 0.032 | [3] 0.004 | [4] 0.007 | [5] 0.021

SRXN1 (UniProt Q9BYN0)
inactive: [1] -0.001 | [2] -0.099 | [3] 0.089 | [4] -0.061 | [5] -0.015

SSR1 (UniProt P43307)
inactive: [1] 0.017 | [2] 0.008 | [3] -0.036 | [4] -0.054 | [5] -0.057

SRFBP1 (UniProt Q8NEF9)
inactive: [1] -0.088 | [2] 0.024 | [3] -0.092 | [4] 0.098 | [5] -0.047

SRD5A3 (UniProt Q9H8P0)
inactive: [1] -0.06 | [2] -0.035 | [3] -0.129 | [4] 0.195

STARD3 isoform 3 (UniProt Q14849)
inactive: [1] -0.015 | [2] 0.007 | [3] 0 | [4] -0.004 | [5] 0

SRF (UniProt P11831)
inactive: [1] 0 | [2] 0.063 | [3] -0.121 | [4] -0.005 | [5] 0.027

SRSF4 (UniProt Q08170)
inactive: [1] -0.027 | [2] 0.023 | [3] 0.019 | [4] 0.016 | [5] 0.052

STAT3 isoform 2 (UniProt P40763)
inactive: [1] -0.001 | [2] 0.022 | [3] 0.015 | [4] -0.02 | [5] 0.006

SPINDOC (UniProt Q9BUA3)
inactive: [1] -0.004 | [2] 0.025 | [3] -0.096 | [4] 0.028 | [5] -0.058

STARD7 (UniProt Q9NQZ5)
inactive: [1] 0.033 | [2] 0.093 | [3] -0.037 | [4] -0.019 | [5] 0.051

SRPK1 (UniProt Q96SB4)
inactive: [1] -0.002 | [2] -0.023 | [3] 0.004 | [4] -0.015 | [5] -0.025

SRPK2 isoform 2 (UniProt P78362)
inactive: [1] 0.004 | [2] 0.013 | [3] -0.049 | [4] -0.043 | [5] -0.078

STAT2 (UniProt P52630)
inactive: [1] -0.033 | [2] 0.005 | [3] 0.043 | [4] 0.033 | [5] 0.017

SSBP3 (UniProt Q9BWW4)
inactive: [1] -0.113 | [2] -0.031 | [3] 0.062 | [4] -0.06 | [5] -0.005

SSR3 isoform 2 (UniProt Q9UNL2)
inactive: [1] 0.023 | [2] 0.026 | [3] -0.108 | [4] -0.112 | [5] 0.178

SPG21 (UniProt Q9NZD8)
inactive: [1] -0.025 | [2] -0.044 | [3] 0.035 | [4] -0.008 | [5] 0.012

SSNA1 (UniProt O43805)
inactive: [1] 0.034 | [2] -0.038 | [3] 0.009 | [4] -0.129 | [5] -0.075

STAT3 isoform 3 (UniProt P40763)
inactive: [1] 0.042 | [2] 0.062 | [3] -0.121 | [4] 0.048 | [5] 0.004

SPTAN1 (UniProt Q13813)
inactive: [1] -0.001 | [2] -0.002 | [3] 0.006 | [4] -0.032 | [5] -0.008

SRGN (UniProt P10124)
inactive: [1] 0.101 | [2] 0.14 | [3] 0.063 | [4] -0.03 | [5] -0.196

SRSF11 (UniProt Q05519)
inactive: [1] 0.005 | [2] 0.033 | [3] -0.005 | [4] 0.023 | [5] 0.038

SSB (UniProt P05455)
inactive: [1] -0.004 | [2] 0.015 | [3] -0.009 | [4] 0.012 | [5] 0.068

SPDL1 (UniProt Q96EA4)
inactive: [1] -0.022 | [2] 0.036 | [3] 0.011 | [4] 0.03 | [5] 0.014

STAG2 isoform 2 (UniProt Q8N3U4)
inactive: [1] 0.042 | [2] -0.006 | [3] 0.02 | [4] 0.014 | [5] 0.003

SRRM1 (UniProt Q8IYB3)
inactive: [1] 0.035 | [2] 0.017 | [3] -0.034 | [4] 0.055 | [5] 0.045

SRSF9 (UniProt Q13242)
inactive: [1] 0.015 | [2] 0.024 | [3] -0.076 | [4] 0.06 | [5] -0.014

SPRED2 (UniProt Q7Z698)
inactive: [1] 0.116 | [2] 0.067

SPIN1 (UniProt Q9Y657)
inactive: [1] -0.179 | [2] -0.271 | [3] 0.142 | [4] -0.194 | [5] 0.091

SPTAN1 isoform 3 (UniProt Q13813)
inactive: [1] -0.03 | [2] -0.001 | [3] 0.028

SPCS1, A0A5F9YFS9
inactive: [1] -0.062 | [2] 0.014 | [3] -0.001 | [4] 0.204 | [5] -0.001

Random excerpt: four entries already listed, in no set order.
SRGN (UniProt P10124)
inactive: [1] 0.101 | [2] 0.14 | [3] 0.063 | [4] -0.03 | [5] -0.196

SRSF4 (UniProt Q08170)
inactive: [1] -0.027 | [2] 0.023 | [3] 0.019 | [4] 0.016 | [5] 0.052

SSBP3 (UniProt Q9BWW4)
inactive: [1] -0.113 | [2] -0.031 | [3] 0.062 | [4] -0.06 | [5] -0.005

SSR1 (UniProt P43307)
inactive: [1] 0.017 | [2] 0.008 | [3] -0.036 | [4] -0.054 | [5] -0.057

(continued)

SRR (UniProt Q9GZT4)
inactive: [1] 0.054 | [2] 0.096 | [3] 0.008 | [4] 0.187 | [5] -0.042

SPTBN4 (UniProt Q9H254)
inactive: [1] -0.073 | [2] 0.037 | [3] -0.044 | [4] -0.063 | [5] -0.038

SRSF7 (UniProt Q16629)
inactive: [1] -0.005 | [2] 0.023 | [3] 0.04 | [4] 0.025 | [5] -0.045

STAM2 (UniProt O75886)
inactive: [1] 0.039 | [2] 0.023 | [3] -0.018 | [4] -0.028 | [5] -0.001

SRP72 (UniProt O76094)
inactive: [1] 0.026 | [2] -0.013 | [3] 0.004 | [4] 0.046 | [5] 0

SPHK1 isoform 2 (UniProt Q9NYA1)
inactive: [1] -0.014 | [2] -0.034 | [3] -0.038 | [4] -0.003 | [5] 0.092

ST6GALNAC1 (UniProt Q9NSC7)
inactive: [1] 0.085 | [2] -0.055 | [3] 0.066 | [4] 0.057 | [5] 0.044

SRSF2 (UniProt Q01130)
inactive: [1] 0.023 | [2] -0.011 | [3] 0 | [4] -0.058 | [5] -0.129

SPCS3 (UniProt P61009)
inactive: [1] -0.004 | [2] -0.028 | [3] 0.063 | [4] -0.006 | [5] 0.022

SQSTM1 (UniProt Q13501)
inactive: [1] 0.027 | [2] 0.013 | [3] -0.028 | [4] -0.013 | [5] 0.025

SRPRB (UniProt Q9Y5M8)
inactive: [1] 0.008 | [2] -0.036 | [3] 0.039 | [4] -0.022 | [5] 0.014

SPATA5 (UniProt Q8NB90)
inactive: [1] -0.024 | [2] -0.005 | [3] 0.026 | [4] 0.008 | [5] 0.02

STAU1 (UniProt O95793)
inactive: [1] -0.023 | [2] -0.021 | [3] 0.012 | [4] 0.059 | [5] 0.09

SPAST (UniProt Q9UBP0)
inactive: [1] -0.017 | [2] 0.005 | [3] 0.095 | [4] 0.006 | [5] 0.017

SRRM2 (UniProt Q9UQ35)
inactive: [1] 0.068 | [2] -0.005 | [3] -0.008 | [4] 0.006 | [5] -0.023

SRSF8 (UniProt Q9BRL6)
inactive: [1] 0.012 | [2] -0.009 | [3] -0.002 | [4] -0.042 | [5] -0.074

STARD3NL (UniProt O95772)
inactive: [1] 0.005 | [2] 0.015 | [3] -0.016 | [4] -0.015 | [5] -0.004

SRPRA (UniProt P08240)
inactive: [1] 0.016 | [2] 0.018 | [3] 0.051 | [4] 0.039 | [5] 0.071

SPEN (UniProt Q96T58)
inactive: [1] 0.097 | [2] 0.049 | [3] 0.031 | [4] -0.003 | [5] -0.116
